Measurements from PubChem BioAssay AID2417 (National Center for Advancing Translational Sciences (NCATS), 2010).
The whole screen tested about 140,000 compounds, of which about 4,300 (3.1%) were called active. The inconclusive results got no clear call from the source; some entries with a clear call stand among them for comparison.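 Rule for the calls: active = readout at or below -70, meaning at least 70% loss of cells showing the perinucleolar compartment, a nuclear body marking cancer cells; inconclusive = readout between -30 and a set limit; inactive = the rest.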

Assay: High Content Assay for Compounds that inhibit the Assembly of the Perinucleolar Compartment;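 note: plate controls were DMSO wells for no effect and camptothecin positive control wells for full effect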
Details: PC3M PTB-GFP, PNC prevalence imaging, 16 h; at 10 µM; active compounds read low
Summary of the method: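 Compounds are pinned in duplicate onto adhered PC3M cells stably expressing GFP-tagged PTB and incubated 16 h at 37 C. Cells are then fixed, nuclei stained with Hoechst, and PNC-positive cells counted.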

Row | Structure (SMILES) | activity change (PNC), negative = inhibition
1 | COc1ccc(C(=O)N[C@H](C(=O)Nc2ccc(OC)nc2)C(C)C)cc1 | active: -112%
2 | Cc1ccc(NC(=S)NC2CCN(Cc3ccccc3)CC2)cc1 | active: -119%
3 | Cc1ccc(C)n1-c1ccc(C(=O)N2CCOCC2)cc1 | inactive: 7.33%
4 | COc1ccc(NC(=O)C2C3C=CC(C3)C2C(=O)NCc2ccco2)c(OC)c1 (stereo unspecified) | inactive: 12.6%
5 | Cc1ccc(S(=O)(=O)ON2C(=O)c3ccccc3C2=O)c(C)c1 | inconclusive: -31.6%
6 | CC1CCCCC1NC(=O)c1ccc2c(c1)[nH]c(=O)n2C1CCCC1 (stereo unspecified) | inactive: -7.99%
7 | COc1ccc(C(=O)c2cc(C(C)=O)c(Nc3ccccc3)s2)cc1 | inconclusive: -30.3%
8 | CCCc1[nH]nc2c1C(c1ccncc1)C(C#N)=C(N)O2 (stereo unspecified) | inactive: -13.6%
9 | O=C(COC(=O)c1cc(-c2ccco2)nc2ccccc12)NCc1ccccc1 | inconclusive: -45.9%
10 | Cc1cc(C)n(C(=O)c2cccc(S(=O)(=O)N3CCOCC3)c2)n1 | inconclusive: -50.8%
11 | O=C(CCSCCc1ccccn1)Nc1ccc(Br)cn1 | inactive: 30.1%
12 | Cc1c(CCOC(=O)CC23CC4CC(CC(C4)C2)C3)sc[n+]1Cc1ccccc1 | inactive: 35.5%
13 | Cn1c(N)c(C#N)c2c(c1=S)CSC(C)(C)C2 | inconclusive: -36.6%
14 | Cc1cc(C)cc(OCC(=O)NNC(=O)CCC(=O)NCc2ccccc2)c1 | inconclusive: -32%
15 | Cc1c(NC(=O)C(C)N2C(=O)c3ccccc3C2=O)c(=O)n(-c2ccccc2)n1C (stereo unspecified) | inconclusive: -41.1%
16 | O=C(CN1CCOCC1)N/N=C/c1cc2ccccc2nc1Cl | inconclusive: -59.3%
17 | Clc1cccc(-c2nnc3sc(-c4ccc5c(c4)OCO5)nn23)c1 | inactive: 6.1%
18 | CCOC(=O)c1c(-c2ccc(OC)cc2)csc1/N=C/C1=C(O)CCCC1=O | inconclusive: -43.2%
19 | O=C(/C=C/c1ccccc1[N+](=O)[O-])Nc1cccnc1 | inconclusive: -36.3%
20 | Cc1nn(Cc2ccccc2)c(N)c1-c1ccccc1 | inactive: 4.68%
21 | COCCNC(=O)C(c1ccc(C)o1)N(Cc1ccc(OC)cc1)C(=O)Cn1nnc2ccccc21 (stereo unspecified) | inconclusive: -41.5%
22 | O=C(NCc1ccccc1)C(c1ccc(F)cc1)N(Cc1ccc2c(c1)OCO2)C(=O)Cn1nnc(-c2cccs2)n1 (stereo unspecified) | inactive: -4.59%
23 | CCCCn1c(SCC(=O)N2CCC(C)CC2)nc2cc(S(N)(=O)=O)ccc21 | inconclusive: -72.4%

Row | Structure (SMILES) | activity change (PNC), negative = inhibition
24 | COc1ccc(CNC(=O)/C=C/c2ccc(OCCCF)cc2)cc1 | inconclusive: -69.7%
25 | c1ccc(-c2csc(-n3cnnn3)n2)cc1 | inconclusive: -60.9%
26 | COc1ccc(C(=O)COC(=O)Cn2nnc3ccccc32)cc1Br | inactive: 10.8%
27 | COc1cc(CNCc2ccccn2)ccc1OCc1ccc(Cl)cc1 | inconclusive: -49%
28 | O=C(O)CC1C(=O)NCCN1CCCc1ccccc1 (stereo unspecified) | inconclusive: -41.8%
29 | Cc1ccc(-n2ncc(C(=O)N3CCc4ccccc4C3)c2NC(=O)c2ccco2)cc1C | inactive: -7.06%
30 | Cc1ccc2nsnc2c1NC(=O)c1ccc2c(c1)OCCO2 | inconclusive: -34.2%
31 | Oc1ccc(Cl)cc1-c1cc(-c2cccc(Br)c2)n[nH]1 | inactive: 42.3%
32 | CCS(=O)(=O)CCSC(=N)N | inconclusive: -34.3%
33 | COc1cc(NC(=O)COC(=O)Cc2ccc(-c3ccccc3)cc2)cc(OC)c1 | active: -102%
34 | COc1ccc2nc(/N=C(\N)NC(=O)Nc3ccccc3)nc(C)c2c1 | inconclusive: -77.8%
35 | CCOC(=O)N1CCN(S(=O)(=O)c2ccc(Br)s2)CC1 | active: -90.2%
36 | CC(Oc1cccc2c1OC(C)(C)C2)C(=O)O (stereo unspecified) | inconclusive: -34.4%
37 | CCOc1ccc(C(=O)O/N=C(\N)c2ccc([N+](=O)[O-])cc2)cc1OCC | inconclusive: -40.7%
38 | Cc1ccc(S(=O)(=O)NCCC(=O)O)cc1 | inactive: 8.73%
39 | CCOC(=O)C1CCN(c2c(N3CCN(c4ccccc4OC)CC3)c(=O)c2=O)CC1 | active: -82.4%
40 | COC(=O)c1sccc1NC(=O)c1c(-c2ccccc2)noc1C | inactive: -9.94%
41 | CCCOC(=O)c1c(NC(=O)c2cnn3c2NC(c2ccccc2)CC3C(F)(F)F)sc2c1CCCC2 (stereo unspecified) | inconclusive: -49.6%
42 | O=C(CCN1C(=O)/C(=C/C=C/c2ccccc2)SC1=S)Nc1cccnc1 | active: -108%
43 | CC(=O)Nc1ccc(S(=O)(=O)CCC#N)cc1 | inconclusive: -32.1%
44 | CCCCSCCCNC(=O)CS(=O)Cc1nc(-c2cccc(C)c2)oc1C (stereo unspecified) | inconclusive: -31.1%
45 | Cc1cc(C)n(-c2nc3ccccc3[nH]c2=O)n1 | inconclusive: -78.2%
46 | Cc1ccc(-n2c(C)cc(C=C(C#N)C#N)c2C)cc1 | inconclusive: -57.3%

Row | Structure (SMILES) | activity change (PNC), negative = inhibition
47 | COc1cc(S(=O)(=O)N(Cc2ccco2)C2CCCC2)ccc1-n1cnnn1 | inconclusive: -31%
48 | COc1ccc(OC)c(NC(=O)C23CCC(C)(C(=O)C2)C3(C)C)c1 (stereo unspecified) | active: -85.5%
49 | CN(CCNC(=O)C1CCN(S(=O)(=O)c2cnc[nH]2)CC1)Cc1ccccc1 | inconclusive: -40.4%
50 | O=C(NCCc1ccc(Cl)cc1)C1CCN(c2cnccn2)CC1 | inconclusive: -34.7%
51 | CCOC(=O)C(C)Sc1nnc(NC(=O)c2ccc(C)c([N+](=O)[O-])c2)s1 (stereo unspecified) | inconclusive: -59.3%
52 | O=C(Nc1ccc(NC(=O)c2ccco2)cc1)c1cnccn1 | inactive: 33.5%
53 | COc1ccc(S(=O)(=O)Nc2ccc(NC(C)=O)cc2)cc1OC | inconclusive: -52.8%
54 | Cc1ccc(C(=O)C(C)OC(=O)c2ccccc2[N+](=O)[O-])cc1 (stereo unspecified) | inconclusive: -35.1%
55 | CCCCOc1ccc(C(=O)N/C(=C/C=C/c2ccccc2)C(=O)NCCO)cc1 | inconclusive: -43.7%
56 | CCCCN1Cc2cc(C(=O)c3cc(OC)ccc3O)cnc2NC1=O | inconclusive: -39%
57 | COc1ccc(C(=O)CSc2nc(N)nc(SC)c2C#N)cc1 | inactive: 14.1%
58 | CCOc1ccccc1N1CSC2=C(C#N)C(c3c(OC)ccc4ccccc34)CC(=O)N2C1 (stereo unspecified) | active: -106%
59 | COc1ccc(-c2nnc3sc(-c4cccs4)nn23)cc1OC | inactive: 13.6%
60 | CC(C)CN1C(=O)c2ccc(NC(=O)c3cccs3)cc2C1=O | inconclusive: -55.7%
61 | O=C(Nc1cc(C(F)(F)F)ccc1Cl)c1cc(C2CC2)on1 | inactive: -19.5%
62 | O=C(c1ccc2c(c1)OCO2)N1CCc2ccccc2C1 | inactive: -21.4%
63 | COc1ccc(N2CCN(C(=O)CSc3ncccc3-c3nc4ccccc4[nH]3)CC2)cc1 | inconclusive: -40.3%
64 | O=[N+]([O-])C(=C1Nc2ccccc2N1)/C(Cl)=C(/Cl)Br | inactive: -20.2%
65 | O=C(O/N=C(\c1ccccc1)c1ccccn1)c1ccc(Cl)c(Cl)c1 | active: -107%
66 | COc1ccc([N+](=O)[O-])cc1NC(=O)Cn1ccsc1=N | inconclusive: -43.8%
67 | Cn1nnnc1SCC(=O)Nc1ccccc1N1CCCCC1 | inactive: -6.81%
68 | COC(=O)c1sccc1NC(=O)c1cccnc1 | inconclusive: -70.2%
69 | COc1ccc(-c2cnc3c(c2)CCC3(C#N)C#N)cc1 | inactive: 0.767%

3 records picked at random from those above, as already listed:
Row | Structure (SMILES) | activity change (PNC), negative = inhibition
47 | COc1cc(S(=O)(=O)N(Cc2ccco2)C2CCCC2)ccc1-n1cnnn1 | inconclusive: -31%
67 | Cn1nnnc1SCC(=O)Nc1ccccc1N1CCCCC1 | inactive: -6.81%
65 | O=C(O/N=C(\c1ccccc1)c1ccccn1)c1ccc(Cl)c(Cl)c1 | active: -107%

As entered above:
activity change (PNC), negative = inhibition with CCOc1ccc(C(=O)O/N=C(\N)c2ccc([N+](=O)[O-])cc2)cc1OCC reads inconclusive: -40.7%
activity change (PNC), negative = inhibition with COc1cc(S(=O)(=O)N(Cc2ccco2)C2CCCC2)ccc1-n1cnnn1 reads inconclusive: -31%

The results go on:

Row | Structure (SMILES) | activity change (PNC), negative = inhibition
70 | CCOC(=O)C1CCCN(Cc2cccc(Cl)c2)C1 (stereo unspecified) | inconclusive: -30.2%
71 | COC(=O)C1=C(C)N(CCc2cc(OC)c(OC)c(OC)c2)C(=O)N[C@H]1c1ccc(Br)cc1 | inconclusive: -41.4%
72 | Cc1ccc(C)c(CS(=O)(=O)c2cn(CC(=O)N3CCCCC3)c3ccccc23)c1 | inconclusive: -55.4%
73 | CCCCOc1ccc(-c2nnn(C(C)(C)C(=O)OC)n2)cc1 | inconclusive: -31.8%
74 | COc1ccc(NC(=O)c2oc3ccccc3c2NC(=O)c2ccco2)c(OC)c1 | inconclusive: -66.2%
75 | Cc1ccc(NC(=O)CN(C)S(=O)(=O)c2cccc3nsnc23)cc1Cl | inconclusive: -50.8%
76 | NC(=O)N1c2ccccc2C=Cc2ccccc21 | inconclusive: -33.8%
77 | Cc1nn(-c2ccccc2)c(Cl)c1/C=C/C(=O)c1ccc(O)cc1 | active: -91.6%
78 | O=C(NCc1ccco1)C1CCN(S(=O)(=O)c2cccc3cccnc23)CC1 | inconclusive: -71.5%
79 | C/C(=N\O)C1(C)N(O)C(C)(C)C(c2ccc(Br)cc2)=[N+]1[O-] (stereo unspecified) | inconclusive: -36.5%
80 | C[C@H](NC(=O)OC(C)(C)C)c1nnc(SCC(N)=O)o1 | inconclusive: -30.9%
81 | Cc1c(/C=N\NC(=O)c2ccc([N+](=O)[O-])cc2)cnn1C | active: -109%
82 | O=C(NC1CCC(NC(=O)C(F)(F)C(F)F)CC1)C(F)(F)C(F)F (stereo unspecified) | inconclusive: -61%
83 | Cc1nc(Cl)sc1C(=O)Nc1ccccc1 | inconclusive: -49.7%
84 | Cc1c(C(=O)N/N=C/c2ccccc2)[nH]c2ccc(Cl)cc12 | inactive: -11.5%
85 | O=C(CSc1ccc(-c2ccc(F)cc2)nn1)N1CCN(c2ccccc2)CC1 | inactive: -3.12%
86 | Cc1cc(C)nc(NC(=O)c2c(-c3ccccc3Cl)noc2C)n1 | inconclusive: -50.9%
87 | COc1ccc(CNC(=O)CCS(=O)(=O)c2cccc3nonc23)cc1 | inactive: 3.33%
88 | Cn1c(SCC(=O)NCC2CCCO2)nnc1-c1c[nH]c2ccccc12 (stereo unspecified) | inactive: -17.4%
89 | COc1cc(/C=C/C(=O)N2C(=O)c3cccc(N)c3C2=O)cc(OC)c1OC | inconclusive: -61.2%
90 | CC(C)CNc1cc(Cl)c(S(=O)(=O)NCC(C)C)cc1C(=O)O | inconclusive: -36%
91 | CCOC(=O)Cn1nc(-c2ccc(C)cc2)ccc1=O | inconclusive: -63.7%
